PubChem BioAssay AID504808, Drosophila RNAi Screening Center | 2011
The screen tested about 21,000 reagents; below is a random part of those that have a named target and a result. Of all reagents, 18 (0.084%) are marked active. 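Raw counts without plate normalisation, one of two replicates; the ratio scores behind the calls were not deposited.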 Reagents against one gene are numbered here. Names joined by + are all predicted targets of the reagent. The record does not give: the amount of reagent, the time to read-out.

Aim: 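Genes whose loss lifts activity of an E2F-responsive reporter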 (primary screen)
System: Drosophila S2 cells
Reagents: long dsRNA against Drosophila genes
Measurement: 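Dual luciferase plate measurements; E2F-specific signal taken as firefly over Renilla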
Reading the numbers: E2F firefly: higher = more E2F reporter activity; Renilla normaliser: higher = more normaliser reporter signal
Active means: 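Called active if the normalised E2F reporter went up by over 50%; the cutoff is arbitrary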

| Gene | reagent | E2F firefly, rep 1 | Renilla normaliser, rep 1 | activity call |
| --- | --- | --- | --- | --- |
| PGRP-SC1b (Peptidoglycan recognition protein SC1b) | 1 | 3168 | 198 | inactive |
| CG8665 | 1 | 93226 | 3686 | inactive |
| RpS24 (Ribosomal protein S24) | 1 | 73909 | 3702 | inactive |
| CG11030 | 1 | 1.42e5 | 5388 | inactive |
| Cftr (CF transmembrane conductance regulator) | 1 | 81205 | 3572 | inactive |
| Obp69a (Odorant-binding protein 69a) | 1 | 1.12e5 | 5446 | inactive |
| CG10431 | 1 | 98001 | 4233 | inactive |
| Atg10 (Autophagy-related 10) | 1 | 1.43e5 | 4555 | inactive |
| CG14411 | 1 | 1.58e5 | 6410 | inactive |
| schlank | 1 | 52478 | 3707 | inactive |
| schlank | 2 | 96401 | 5576 | inactive |
| Etfb (Electron transfer flavoprotein beta subunit) | 1 | 1560 | 984 | inactive |
| CG31104 | 1 | 94111 | 5455 | inactive |
| CG14147 | 1 | 1.53e5 | 7239 | inactive |
| CG12851 | 1 | 1.25e5 | 4281 | inactive |
| stv (starvin) | 1 | 69532 | 3252 | inactive |
| stv (starvin) | 2 | 1.08e5 | 5421 | inactive |
| AANATL5 (Arylalkylamine N-acetyltransferase-like 5) | 1 | 1.38e5 | 4956 | inactive |
| CG9231 | 1 | 72290 | 3702 | inactive |
| lncRNA:CR32661 (long non-coding RNA:CR32661) | 1 | 1.51e5 | 6726 | inactive |
| CG5355 | 1 | 80810 | 4128 | inactive |
| Dgp-1 | 1 | 1.51e5 | 4905 | inactive |
| not (non-stop) | 1 | 70687 | 4219 | inactive |
| CG33981 + fab1 | 1 | 70510 | 3640 | inactive |
| CG13408 | 1 | 71493 | 2827 | inactive |
| CG13408 | 2 | 1.46e5 | 7597 | inactive |
| SmE (Small ribonucleoprotein particle protein SmE) | 1 | 93773 | 4661 | inactive |
| VhaAC39-1 (Vacuolar H[+] ATPase AC39 subunit 1) | 1 | 1957 | 948 | inactive |
| CG1077 | 1 | 1.35e5 | 6594 | inactive |
| Dp (DP transcription factor) | 1 | 1213 | 199 | inactive |
| CG9519 | 1 | 8497 | 744 | inactive |
| TTLL3A (Tubulin tyrosine ligase-like 3A) | 1 | 1.67e5 | 5223 | inactive |
| CG18094 | 1 | 1.06e5 | 4057 | inactive |
| CG16789 | 1 | 1.73e5 | 5926 | inactive |
| CG1136 | 1 | 74652 | 4043 | inactive |
| CG13309 | 1 | 97564 | 4592 | inactive |
| parvin | 1 | 1.53e5 | 6712 | inactive |
| Max | 1 | 81206 | 153 | inactive |
| CG17738 | 1 | 1.52e5 | 6346 | inactive |
| Loxl2 (Lysyl oxidase-like 2) | 1 | 73787 | 2953 | inactive |
| CG17097 | 1 | 1.47e5 | 4487 | inactive |
| CG13116 | 1 | 1.66e5 | 5270 | inactive |
| ttm2 (tiny tim 2) | 1 | 1.01e5 | 4442 | inactive |
| CG12693 | 1 | 1.14e5 | 5571 | inactive |
| Tsen2 (tRNA splicing endonuclease subunit 2) | 1 | 1.38e5 | 7007 | inactive |
| Coop (Corepressor of Pangolin) | 1 | 79344 | 3572 | inactive |
| Ir20a (Ionotropic receptor 20a) | 1 | 1.27e5 | 6270 | inactive |
| CG31064 | 1 | 1.16e5 | 5952 | inactive |
| CG31064 | 2 | 1.15e5 | 7293 | inactive |
| CG31064 | 3 | 1.17e5 | 6283 | inactive |
| CG31064 | 4 | 99693 | 6573 | inactive |
| CG6770 | 1 | 94355 | 4432 | inactive |
| ATPCL (ATP citrate lyase) | 1 | 1.64e5 | 5783 | inactive |
| CG10877 | 1 | 1.51e5 | 7233 | inactive |
| CG12539 | 1 | 2.29e5 | 7974 | inactive |
| CG9592 | 1 | 1.61e5 | 8147 | inactive |
| CG4270 | 1 | 1.68e5 | 6582 | inactive |

5 entries from above, sorted by “Renilla normaliser, rep 1”, low to high:
| Gene | reagent | E2F firefly, rep 1 | Renilla normaliser, rep 1 | activity call |
| --- | --- | --- | --- | --- |
| CG6770 | 1 | 94355 | 4432 | inactive |
| ATPCL (ATP citrate lyase) | 1 | 1.64e5 | 5783 | inactive |
| CG31064 | 3 | 1.17e5 | 6283 | inactive |
| CG31064 | 4 | 99693 | 6573 | inactive |
| CG31064 | 2 | 1.15e5 | 7293 | inactive |
